Measurements published in paper PMC12850329.

Experiments:
[1] = target: HIGD1A (M72V) mutant; experiment: co-IP; wild-type HIGD1A or HIGD1A-M72V after AA treatment; TFAM levels in the immunoprecipitates
[2] = target: Hypoxia-induced gene domain protein-1a (HIGD1A) (human (endogenous in HK-2)); experiment: co-IP; immunoprecipitation of HIGD1A or control IgG from HK-2 cells treated with PBS or AA (100 µM) for 24 h

B1: mitochondrial transcription factor A (TFAM) (protein, UniProt Q00059 43-246)
chain: SSVLASCPKKPVSSYLRFSKEQLPIFKAQNPDAKTTELIRRIAQRWRELPDSKKKIYQDAYRAEWQVYKEEISRFKEQLTPSQIMSLEKEIMDKHLKRKAMTKKKELTLLGKPKRPRSAYNVYVAERFQEAKGDSPQEKLKTVKENWKNLSDSEKELYIQHAKEDETRYHNEMKSWEEQMIEVGRKDLLRRTIKKQRKYGAEEC
binding [1]: binds | binding [2]: binds

No constants are given. Whether binding was seen depends on the method and setting. Binding seen in cells or lysates may run through a third protein. A result given as binding can be weak or reduced; the word gives no strength.
